{"source": "PubChem BioAssay AID504774 (Drosophila RNAi Screening Center, 2011)", "screen": "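Knock-downs that shift viability of MMS-exposed cells relative to untreated ones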 (primary screen)", "system": "Drosophila Kc167 cells", "knock-down reagent": "long dsRNA against Drosophila genes, about 0.25 µg dsRNA per well", "time to read-out": "about 6 days: 3 days knock-down, then 3 days with or without MMS", "challenge": "methyl methanesulphonate 0.004% (w/v) for 3 days after knock-down", "measurement": "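Viability in wells given MMS, read as ATP luminescence, normalised by quantiles plate by plate and averaged across replicates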", "direction": "mean viability with MMS: higher = more surviving cells after MMS", "note": "The deposit covers about 23,000 reagents; shown is an unselected part of those with a known target gene and a result. 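Values are quantile-normalised luminescence on an arbitrary scale; higher means more cells surviving MMS.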 Reagents against one gene are numbered here. Names joined by + are all predicted targets of the reagent. Further read-outs or replicates are left out here. No sequences are given here."}
{"gene knocked down":"Klp59C (Kinesin-like protein at 59C)","dsRNA no.":1,"mean viability with MMS":3.55e6}
{"gene knocked down":"CG11583","dsRNA no.":1,"mean viability with MMS":3.45e6}
{"gene knocked down":"Obp83ef (Odorant-binding protein 83ef)","dsRNA no.":1,"mean viability with MMS":3.45e6}
{"gene knocked down":"CG33483","dsRNA no.":1,"mean viability with MMS":3.74e6}
{"gene knocked down":"CG10337","dsRNA no.":1,"mean viability with MMS":3.42e6}
{"gene knocked down":"CG10344","dsRNA no.":1,"mean viability with MMS":3.51e6}
{"gene knocked down":"sev (sevenless)","dsRNA no.":1,"mean viability with MMS":3.52e6}
{"gene knocked down":"Gnpnat (Glucosamine-phosphate N-acetyltransferase)","dsRNA no.":1,"mean viability with MMS":3.72e6}
{"gene knocked down":"amos (absent MD neurons and olfactory sensilla)","dsRNA no.":1,"mean viability with MMS":3.56e6}
{"gene knocked down":"CG12093","dsRNA no.":1,"mean viability with MMS":3.37e6}
{"gene knocked down":"CG13008","dsRNA no.":1,"mean viability with MMS":3.55e6}
{"gene knocked down":"CG13008","dsRNA no.":2,"mean viability with MMS":3.63e6}
{"gene knocked down":"Ir75b (Ionotropic receptor 75b)","dsRNA no.":1,"mean viability with MMS":3.63e6}
{"gene knocked down":"kek3 (kekkon 3)","dsRNA no.":1,"mean viability with MMS":3.67e6}
{"gene knocked down":"kek3 (kekkon 3)","dsRNA no.":2,"mean viability with MMS":3.54e6}
{"gene knocked down":"Myd88","dsRNA no.":1,"mean viability with MMS":3.66e6}
{"gene knocked down":"Ebp (Ejaculatory bulb protein)","dsRNA no.":1,"mean viability with MMS":3.69e6}
{"gene knocked down":"ppk3 (pickpocket 3)","dsRNA no.":1,"mean viability with MMS":3.68e6}
{"gene knocked down":"CG11180","dsRNA no.":1,"mean viability with MMS":3.58e6}
{"gene knocked down":"CG12849","dsRNA no.":1,"mean viability with MMS":3.47e6}
{"gene knocked down":"CASK","dsRNA no.":1,"mean viability with MMS":3.73e6}
{"gene knocked down":"CASK","dsRNA no.":2,"mean viability with MMS":3.78e6}
{"gene knocked down":"CASK","dsRNA no.":3,"mean viability with MMS":3.51e6}
{"gene knocked down":"CASK","dsRNA no.":4,"mean viability with MMS":3.59e6}
{"gene knocked down":"Mvb12 (Multivesicular body subunit 12)","dsRNA no.":1,"mean viability with MMS":3.76e6}
{"gene knocked down":"ifc (infertile crescent)","dsRNA no.":1,"mean viability with MMS":3.59e6}
{"gene knocked down":"Mink (Mitotic spindle and nuclear protein)","dsRNA no.":1,"mean viability with MMS":3.51e6}
{"gene knocked down":"CG4313","dsRNA no.":1,"mean viability with MMS":3.63e6}
{"gene knocked down":"lncRNA:CR40629 (long non-coding RNA:CR40629)","dsRNA no.":1,"mean viability with MMS":2.31e6}
{"gene knocked down":"ATPsyndelta (ATP synthase, delta subunit)","dsRNA no.":1,"mean viability with MMS":3.52e6}
{"gene knocked down":"CG34039","dsRNA no.":1,"mean viability with MMS":3.60e6}
{"gene knocked down":"CG31917 + Tfb5","dsRNA no.":1,"mean viability with MMS":3.21e6}
{"gene knocked down":"CG31917 + Tfb5","dsRNA no.":2,"mean viability with MMS":3.03e6}
{"gene knocked down":"Mcm7 (Minichromosome maintenance 7)","dsRNA no.":1,"mean viability with MMS":3.43e6}
{"gene knocked down":"prc (pericardin)","dsRNA no.":1,"mean viability with MMS":3.71e6}

Sorted by “mean viability with MMS” (low to high): 3 of the entries above.
{"gene knocked down":"CASK","dsRNA no.":3,"mean viability with MMS":3.51e6}
{"gene knocked down":"CASK","dsRNA no.":4,"mean viability with MMS":3.59e6}
{"gene knocked down":"Mvb12 (Multivesicular body subunit 12)","dsRNA no.":1,"mean viability with MMS":3.76e6}
